{"source": "the supplement of paper PMC8728848", "binders": {"B1": {"name": "PX9961K-bvu-480-28-480 (Bacteroides vulgatus) (protein)", "chain": "NKIPTTMAFRTVTDVDNAVNGLYDLMSGSGYYGAAMFAYGDMKGDDMQSSEESGVCNTCYMFNHRPNSLNAGSLWGRPFYILREAWNILNAIAEGKIESGDEKKLNALKGETMAVIALCQFDLTRCFGYPYTKDKGASLGAPLIDHLVGTYENPPRSTVAQAYDFIIETLEEAVTLMSEEKNNGRMNKYAARALLARIYLYHDDNRKAFDLADQLIKDADTSGSYALYPHEKYVAAWSVEAKFGSESFFEIANSVDDTPGRDSWGYLLNWYGYQKGFVTQKYAEQMLADPGDVRGHLLEENKYAGKTVWWLYKLRGTDLKTAPLECNNVVLRLSEVYLIAAEAGCKLGGDAAVQGLGYLNEIVKRGNPDNEVTMADYTLDRVLDERSKELVGEGHRFFDLLRNGKTIVRKGGYHLPSVDEEVDWDFYKCVLPIPEDQFIFSPEMEQNPGYPKN"}}, "test_in_all_cases": "glycan array binding signal (z-score within array); higher = stronger binding", "conditions_in_all_cases": "glycan notation: IUPAC condensed, linker removed", "key": {"[1]": {"molecular_target": "GlcNAc(b1-3)Gal(b1-4)GlcNAc(b1-3)Gal(b1-4)GlcNAc(b1-2)Man(a1-3)[GlcNAc(b1-3)Gal(b1-4)GlcNAc(b1-3)Gal(b1-4)GlcNAc(b1-2)Man(a1-6)]Man(b1-4)GlcNAc(b1-4)[Fuc(a1-6)]GlcNAc", "method_in_brief": "(§1)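 Glycan array binding is given as a within-array Z-score, which can be read as non-binding when negative. The arrays, 3228 of them, came from the Consortium for Functional Glycomics database and were retained only where the protein sequence was available. Z-scores were averaged across arrays of the same protein sequence at different concentrations or buffers and across linkers.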"}, "[2]": {"molecular_target": "GlcNAc(b1-3)Gal(b1-4)GlcNAc(b1-3)Gal(b1-4)GlcNAc(b1-2)[GlcNAc(b1-3)Gal(b1-4)GlcNAc(b1-3)Gal(b1-4)GlcNAc(b1-6)]Man(a1-6)[GlcNAc(b1-3)Gal(b1-4)GlcNAc(b1-3)Gal(b1-4)GlcNAc(b1-2)Man(a1-3)]Man(b1-4)GlcNAc(b1-4)[Fuc(a1-6)]GlcNAc", "method_in_brief": "as §1"}, "[3]": {"molecular_target": "GlcNAc(b1-3)Gal(b1-4)GlcNAc(b1-3)Gal(b1-4)GlcNAc(b1-3)Gal(b1-4)GlcNAc(b1-2)Man(a1-3)[GlcNAc(b1-3)Gal(b1-4)GlcNAc(b1-3)Gal(b1-4)GlcNAc(b1-3)Gal(b1-4)GlcNAc(b1-2)Man(a1-6)]Man(b1-4)GlcNAc(b1-4)GlcNAc", "method_in_brief": "as §1"}, "[4]": {"molecular_target": "GlcNAc(b1-3)Gal(b1-4)GlcNAc(b1-3)Gal(b1-4)GlcNAc(b1-3)Gal(b1-4)GlcNAc(b1-2)Man(a1-3)[GlcNAc(b1-3)Gal(b1-4)GlcNAc(b1-3)Gal(b1-4)GlcNAc(b1-3)Gal(b1-4)GlcNAc(b1-2)Man(a1-6)]Man(b1-4)GlcNAc(b1-4)[Fuc(a1-6)]GlcNAc", "method_in_brief": "as §1"}, "[5]": {"molecular_target": "GlcNAc(b1-3)Gal(b1-4)GlcNAc(b1-3)Gal(b1-4)GlcNAc(b1-3)Gal(b1-4)GlcNAc(b1-2)[GlcNAc(b1-3)Gal(b1-4)GlcNAc(b1-3)Gal(b1-4)GlcNAc(b1-3)Gal(b1-4)GlcNAc(b1-6)]Man(a1-6)[GlcNAc(b1-3)Gal(b1-4)GlcNAc(b1-3)Gal(b1-4)GlcNAc(b1-3)Gal(b1-4)GlcNAc(b1-2)Man(a1-3)]Man(b1-4)GlcNAc(b1-4)[Fuc(a1-6)]GlcNAc", "method_in_brief": "as §1"}, "[6]": {"molecular_target": "GlcNAc(b1-3)Gal(b1-4)GlcNAc(b1-3)Gal(b1-4)GlcNAc(b1-3)Gal(b1-4)GlcNAc(b1-3)Gal(b1-4)GlcNAc(b1-2)Man(a1-3)[GlcNAc(b1-3)Gal(b1-4)GlcNAc(b1-3)Gal(b1-4)GlcNAc(b1-3)Gal(b1-4)GlcNAc(b1-3)Gal(b1-4)GlcNAc(b1-2)Man(a1-6)]Man(b1-4)GlcNAc(b1-4)GlcNAc", "method_in_brief": "as §1"}, "[7]": {"molecular_target": "GlcNAc(b1-3)Gal(b1-4)GlcNAc(b1-3)Gal(b1-4)GlcNAc(b1-3)Gal(b1-4)GlcNAc(b1-3)Gal(b1-4)GlcNAc(b1-2)Man(a1-3)[GlcNAc(b1-3)Gal(b1-4)GlcNAc(b1-3)Gal(b1-4)GlcNAc(b1-3)Gal(b1-4)GlcNAc(b1-3)Gal(b1-4)GlcNAc(b1-2)Man(a1-6)]Man(b1-4)GlcNAc(b1-4)[Fuc(a1-6)]GlcNAc", "method_in_brief": "as §1"}, "[8]": {"molecular_target": "GlcNAc(b1-3)Gal(b1-4)GlcNAc(b1-3)Gal(b1-4)GlcNAc(b1-3)Gal(b1-4)GlcNAc(b1-3)Gal(b1-4)GlcNAc(b1-2)[GlcNAc(b1-3)Gal(b1-4)GlcNAc(b1-3)Gal(b1-4)GlcNAc(b1-3)Gal(b1-4)GlcNAc(b1-3)Gal(b1-4)GlcNAc(b1-6)]Man(a1-6)[GlcNAc(b1-3)Gal(b1-4)GlcNAc(b1-3)Gal(b1-4)GlcNAc(b1-3)Gal(b1-4)GlcNAc(b1-3)Gal(b1-4)GlcNAc(b1-2)Man(a1-3)]Man(b1-4)GlcNAc(b1-4)[Fuc(a1-6)]GlcNAc", "method_in_brief": "as §1"}, "[9]": {"molecular_target": "GlcNAc(b1-3)Gal(b1-4)GlcNAc(b1-3)Gal(b1-4)GlcNAc(b1-3)GalNAc", "method_in_brief": "as §1"}, "[10]": {"molecular_target": "GlcNAc(b1-3)Gal(b1-4)GlcNAc(b1-3)GalNAc", "method_in_brief": "as §1"}, "[11]": {"molecular_target": "GlcNAc(b1-3)Gal(b1-4)GlcNAc(b1-3)[GlcNAc(b1-3)Gal(b1-4)GlcNAc(b1-3)]GalNAc", "method_in_brief": "as §1"}, "[12]": {"molecular_target": "GlcNAc(b1-3)Gal(b1-4)GlcNAc(b1-6)[Gal(b1-3)]GalNAc", "method_in_brief": "as §1"}, "[13]": {"molecular_target": "GlcNAc(b1-3)Gal(b1-4)GlcNAc(b1-6)[GlcNAc(b1-3)Gal(b1-3)]GalNAc", "method_in_brief": "as §1"}, "[14]": {"molecular_target": "GlcNAc(b1-3)Gal(b1-4)GlcNAc(b1-6)[GlcNAc(b1-3)]Gal(b1-4)GlcNAc", "method_in_brief": "as §1"}, "[15]": {"molecular_target": "GlcNAc(b1-3)GalNAc", "method_in_brief": "as §1"}, "[16]": {"molecular_target": "GlcNAc(b1-3)Man", "method_in_brief": "as §1"}, "[17]": {"molecular_target": "GlcNAc(b1-3)[GlcNAc(b1-4)][GlcNAc(b1-6)]GlcNAc", "method_in_brief": "as §1"}, "[18]": {"molecular_target": "GlcNAc(b1-3)[GlcNAc(b1-6)]Gal(b1-4)GlcNAc", "method_in_brief": "as §1"}, "[19]": {"molecular_target": "GlcNAc(b1-3)[GlcNAc(b1-6)]GalNAc", "method_in_brief": "as §1"}, "[20]": {"molecular_target": "GlcNAc(b1-4)Gal(b1-4)GlcNAc", "method_in_brief": "as §1"}, "[21]": {"molecular_target": "GlcNAc(b1-4)GlcNAc", "method_in_brief": "as §1"}, "[22]": {"molecular_target": "GlcNAc(b1-4)GlcNAc(b1-4)GlcNAc", "method_in_brief": "as §1"}, "[23]": {"molecular_target": "GlcNAc(b1-4)GlcNAc(b1-4)GlcNAc(b1-4)GlcNAc(b1-4)GlcNAc", "method_in_brief": "as §1"}}, "note": "The other results are listed elsewhere or left out."}
{"binder": "B1", "values": [{"measurement": "glycan array binding signal (z-score)", "setting": "[1]", "result": 1.89}, {"measurement": "glycan array binding signal (z-score)", "setting": "[2]", "result": 0.766}, {"measurement": "glycan array binding signal (z-score)", "setting": "[3]", "result": 0.08}, {"measurement": "glycan array binding signal (z-score)", "setting": "[4]", "result": 1.18}, {"measurement": "glycan array binding signal (z-score)", "setting": "[5]", "result": 0.665}, {"measurement": "glycan array binding signal (z-score)", "setting": "[6]", "result": 0.69}, {"measurement": "glycan array binding signal (z-score)", "setting": "[7]", "result": 0.909}, {"measurement": "glycan array binding signal (z-score)", "setting": "[8]", "result": 0.471}, {"measurement": "glycan array binding signal (z-score)", "setting": "[9]", "result": -0.266}, {"measurement": "glycan array binding signal (z-score)", "setting": "[10]", "result": -0.134}, {"measurement": "glycan array binding signal (z-score)", "setting": "[11]", "result": -0.207}, {"measurement": "glycan array binding signal (z-score)", "setting": "[12]", "result": -0.277}, {"measurement": "glycan array binding signal (z-score)", "setting": "[13]", "result": -0.158}, {"measurement": "glycan array binding signal (z-score)", "setting": "[14]", "result": 1.77}, {"measurement": "glycan array binding signal (z-score)", "setting": "[15]", "result": 0.105}, {"measurement": "glycan array binding signal (z-score)", "setting": "[16]", "result": -0.574}, {"measurement": "glycan array binding signal (z-score)", "setting": "[17]", "result": 0.078}, {"measurement": "glycan array binding signal (z-score)", "setting": "[18]", "result": -0.687}, {"measurement": "glycan array binding signal (z-score)", "setting": "[19]", "result": -0.501}, {"measurement": "glycan array binding signal (z-score)", "setting": "[20]", "result": -0.298}, {"measurement": "glycan array binding signal (z-score)", "setting": "[21]", "result": -0.088}, {"measurement": "glycan array binding signal (z-score)", "setting": "[22]", "result": 0.093}, {"measurement": "glycan array binding signal (z-score)", "setting": "[23]", "result": -0.583}]}
